This is one part of the list. Many values rest on one well or one pass, so single values are uncertain.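 Cells were imaged in 1,536-well plates, and nuclei stained with an antibody against cleaved PARP were counted against all DNA-stained nuclei to give the apoptosis fraction. Screening doses were chosen to leave most cells alive, and resting and induced cleaved-PARP levels differ strongly between cell lines.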
How the values were obtained:
Assay in all cases: cleaved PARP positive nuclei fraction relative to DMSO control; melanoma cells; higher = more apoptosis
Settings in all cases: library dose: low library concentration; 72 h
[1] = test system: WM115
[2] = test system: WM1716
[3] = test system: WM1745
[4] = test system: WM3526
[5] = test system: WM3619
[6] = test system: WM451Lu

SMILES | cleaved PARP positive nuclei fraction [1] [%] | cleaved PARP positive nuclei fraction [2] [%] | cleaved PARP positive nuclei fraction [3] [%] | cleaved PARP positive nuclei fraction [4] [%] | cleaved PARP positive nuclei fraction [5] [%] | cleaved PARP positive nuclei fraction [6] [%]
NCC(=O)Nc1ccc(-n2nc(C(F)(F)F)cc2-c2ccc3c(ccc4ccccc43)c2)cc1 + O=C(Nc1ccccc1)c1cc([N+](=O)[O-])ccc1Cl [GW9662] (first compound 1 µM, partner dose 2 µM) | 53.2 | 111 | 107 | 324 | 93.8 | 72.8
CN(C)S(=O)(=O)c1ccc2c(c1)/C(=C/c1cc3c([nH]1)CCCC3)C(=O)N2 + NCC(=O)Nc1ccc(-n2nc(C(F)(F)F)cc2-c2ccc3c(ccc4ccccc43)c2)cc1 [OSU03012] (first compound 0.4 µM, partner dose 1 µM) | 79.2 | 79.7 | 93.4 | 112 | 98.7 | 184
CN(NC(=O)CC(=O)NN(C)C(=S)c1ccccc1)C(=S)c1ccccc1 + CC(C)CCN1c2nc(Nc3cc(F)c(O)c(F)c3)ncc2N(C)C(=O)C1C [BID1870] (first compound 0.006 µM, partner dose 0.2 µM) | 80.4 | 113 | 255 | 80.7 | 149 | 146
COc1cc2c(Oc3ccc4[nH]c(C)cc4c3F)ncnc2cc1OCCCN1CCCC1 [cediranib] + COc1cc2ncnc(Nc3ccc(Oc4ccccc4)cc3)c2cc1OC [SrcI1] (first compound 0.4 µM, partner dose 2 µM) | 73.7 | 72.8 | 112 | 76.4 | 111 | 194
O=S(=O)(c1ccccc1)N(CC(F)(F)F)c1ccc(C(O)(C(F)(F)F)C(F)(F)F)cc1 + COc1cc(N2CCC(N3CCN(C)CC3)CC2)ccc1Nc1ncc(Cl)c(Nc2ccccc2S(=O)(=O)C(C)C)n1 [NVP-TAE684] (first compound 1.4 µM, partner dose 0.08 µM) | 287 | 126 | 122 | 86.2 | 816 | 127
N#Cc1c(O)c2c(-c3ccc(-c4ccccc4O)cc3)csc2[nH]c1=O + O=c1cc(-c2cccc3c2Sc2ccccc2S3)oc(N2CCOCC2)c1 [KU55933] (first compound 2 µM, partner dose 1 µM) | 64.1 | 192 | 106 | 66.6 | 80.1 | 130
N#Cc1c(O)c2c(-c3ccc(-c4ccccc4O)cc3)csc2[nH]c1=O + CC(C)CCN1c2nc(Nc3cc(F)c(O)c(F)c3)ncc2N(C)C(=O)C1C [BID1870] (first compound 2 µM, partner dose 0.2 µM) | 103 | 55.4 | 104 | 214 | 72.3 | 118
COc1ccc(COc2ccc(Cc3cnc(N)nc3N)cc2OC)cc1 + Oc1cc(-c2nc(-c3ccccc3)[nH]c2-c2ccncc2)ccc1Cl [L779450] (first compound 1 µM, partner dose 0.2 µM) | 124 | 72.7 | 227 | 529 | 93.2 | 159
CCc1ccc(CCOc2ccc(CC3SC(=O)NC3=O)cc2)nc1 (stereo not drawn) [pioglitazone] + CCCCCCCCCCCC1=C(O)C(=O)C=C(O)C1=O [Embelin] (first compound 2 µM, partner dose 1.2 µM) | 56.2 | 8.33 | 118 | 126 | 74.6 | 70.2
CN(NC(=O)CC(=O)NN(C)C(=S)c1ccccc1)C(=S)c1ccccc1 + COc1ccc2c(c1)CCC1C2CCC2(C)C(NCCCCCCN3C(=O)C=CC3=O)CCC12 [U73122] (first compound 0.006 µM, partner dose 0.4 µM) | 92.6 | 142 | 88.9 | 135 | 74.5 | 48.2
CN(NC(=O)CC(=O)NN(C)C(=S)c1ccccc1)C(=S)c1ccccc1 + COc1cc2c(Oc3ccc4[nH]c(C)cc4c3F)ncnc2cc1OCCCN1CCCC1 [cediranib] (first compound 0.006 µM, partner dose 0.4 µM) | 110 | 68 | 200 | 56.7 | 183 | 41.6
CN(C)S(=O)(=O)c1ccc2c(c1)/C(=C/c1cc3c([nH]1)CCCC3)C(=O)N2 + O=S(=O)(c1ccccc1)N(CC(F)(F)F)c1ccc(C(O)(C(F)(F)F)C(F)(F)F)cc1 [T0901317] (first compound 0.4 µM, partner dose 1.4 µM) | 29.4 | 38.4 | 138 | 41.6 | 85.9 | 36.7
CN(C)S(=O)(=O)c1ccc2c(c1)/C(=C/c1cc3c([nH]1)CCCC3)C(=O)N2 + O=C(O)C(=O)Nc1sc2c(c1C(=O)O)CCNC2 [TCS401] (first compound 0.4 µM, partner dose 1.66667 µM) | 154 | 83.7 | 114 | 37.4 | 111 | 167
O=S(=O)(c1ccccc1)N(CC(F)(F)F)c1ccc(C(O)(C(F)(F)F)C(F)(F)F)cc1 + Cn1cc(/C=C2\C(=O)Nc3cccnc32)c2ccccc21 [GW441756] (first compound 1.4 µM, partner dose 0.4 µM) | 64.2 | 70.7 | 122 | 103 | 63.4 | 234
O=C(Nc1ccccc1)c1cc([N+](=O)[O-])ccc1Cl + Oc1nc(-c2ccc(C(F)(F)F)cc2)nc2c1CSCC2 [XAV939] (first compound 2 µM, partner dose 2 µM) | 46.8 | 163 | 119 | 29.5 | 92.5 | 126
COc1ccc(COc2ccc(Cc3cnc(N)nc3N)cc2OC)cc1 + O=c1cc(-c2cccc3c2Sc2ccccc2S3)oc(N2CCOCC2)c1 [KU55933] (first compound 1 µM, partner dose 1 µM) | 103 | 62.1 | 114 | 75.7 | 75.4 | 61.1
CCc1ccc(CCOc2ccc(CC3SC(=O)NC3=O)cc2)nc1 (stereo not drawn) [pioglitazone] + Oc1nc(-c2ccc(C(F)(F)F)cc2)nc2c1CSCC2 [XAV939] (first compound 2 µM, partner dose 2 µM) | 117 | 163 | 137 | 143 | 89.9 | 45.7
CCc1ccc(CCOc2ccc(CC3SC(=O)NC3=O)cc2)nc1 (stereo not drawn) [pioglitazone] + O=C(O)C(=O)Nc1sc2c(c1C(=O)O)CCNC2 [TCS401] (first compound 2 µM, partner dose 1.66667 µM) | 145 | 38 | 127 | 96.2 | 65.6 | 55.7
O=C(O)c1ccc(-c2c[nH]c3ncc(-c4ccccc4)cc23)cc1C1CCCC1 + COc1ccc(COc2ccc(Cc3cnc(N)nc3N)cc2OC)cc1 [GW2580] (first compound 0.16 µM, partner dose 1 µM) | 134 | 46.3 | 111 | 145 | 89.1 | 48.9
CN(NC(=O)CC(=O)NN(C)C(=S)c1ccccc1)C(=S)c1ccccc1 + COC(=O)c1sccc1S(=O)(=O)Nc1ccc(Nc2ccccc2)cc1OC [GSK0660] (first compound 0.006 µM, partner dose 1 µM) | 67.9 | 118 | 222 | 65.8 | 236 | 153
O=C(O)c1ccc(-c2c[nH]c3ncc(-c4ccccc4)cc23)cc1C1CCCC1 + NCC(=O)Nc1ccc(-n2nc(C(F)(F)F)cc2-c2ccc3c(ccc4ccccc43)c2)cc1 [OSU03012] (first compound 0.16 µM, partner dose 1 µM) | 85.5 | 146 | 79.4 | 126 | 120 | 87.7
O=S(=O)(c1ccccc1)N(CC(F)(F)F)c1ccc(C(O)(C(F)(F)F)C(F)(F)F)cc1 + COc1cc2ncnc(Nc3ccc(Oc4ccccc4)cc3)c2cc1OC [SrcI1] (first compound 1.4 µM, partner dose 2 µM) | 69.7 | 97.1 | 128 | 69.5 | 98.9 | 61.3
COC(=O)c1sccc1S(=O)(=O)Nc1ccc(Nc2ccccc2)cc1OC + Oc1nc(-c2ccc(C(F)(F)F)cc2)nc2c1CSCC2 [XAV939] (first compound 1 µM, partner dose 2 µM) | 30.2 | 62.8 | 123 | 60.2 | 76.7 | 176
O=S(=O)(c1ccccc1)N(CC(F)(F)F)c1ccc(C(O)(C(F)(F)F)C(F)(F)F)cc1 + Oc1nc(-c2ccc(C(F)(F)F)cc2)nc2c1CSCC2 [XAV939] (first compound 1.4 µM, partner dose 2 µM) | 75.8 | 206 | 134 | 73.8 | 99.4 | 243
O=S(=O)(c1ccccc1)N(CC(F)(F)F)c1ccc(C(O)(C(F)(F)F)C(F)(F)F)cc1 + O=c1cc(-c2cccc3c2Sc2ccccc2S3)oc(N2CCOCC2)c1 [KU55933] (first compound 1.4 µM, partner dose 1 µM) | 165 | 116 | 86.6 | 74.6 | 64 | 31.9
CCN(CC)CCCCNc1ncc2cc(-c3cc(OC)cc(OC)c3)c(NC(=O)NC(C)(C)C)nc2n1 + COc1ccc(COc2ccc(Cc3cnc(N)nc3N)cc2OC)cc1 [GW2580] (first compound 0.1 µM, partner dose 1 µM) | 225 | 117 | 104 | 31.7 | 203 | 121
O=C(O)C(=O)Nc1sc2c(c1C(=O)O)CCNC2 + O=C1NC(=O)/C(=C/c2ccc(-c3ccc(F)cc3O)o2)S1 [AS252424] (first compound 1.66667 µM, partner dose 1 µM) | 45.9 | 180 | 119 | 30.9 | 92.3 | 161
CCN(CC)CCCCNc1ncc2cc(-c3cc(OC)cc(OC)c3)c(NC(=O)NC(C)(C)C)nc2n1 + c1cc(-c2cnn3cc(-c4ccc(OCCN5CCCCC5)cc4)cnc23)ccn1 [Dorsomorphin] (first compound 0.1 µM, partner dose 0.4 µM) | 50.8 | 83 | 234 | 208 | 82.8 | 64.5

Some of the entries above in another layout.
SMILES	cleaved PARP positive nuclei fraction [1] [%]	cleaved PARP positive nuclei fraction [2] [%]	cleaved PARP positive nuclei fraction [3] [%]	cleaved PARP positive nuclei fraction [4] [%]	cleaved PARP positive nuclei fraction [5] [%]	cleaved PARP positive nuclei fraction [6] [%]
O=S(=O)(c1ccccc1)N(CC(F)(F)F)c1ccc(C(O)(C(F)(F)F)C(F)(F)F)cc1 + Oc1nc(-c2ccc(C(F)(F)F)cc2)nc2c1CSCC2 [XAV939] (first compound 1.4 µM, partner dose 2 µM)	75.8	206	134	73.8	99.4	243
O=S(=O)(c1ccccc1)N(CC(F)(F)F)c1ccc(C(O)(C(F)(F)F)C(F)(F)F)cc1 + O=c1cc(-c2cccc3c2Sc2ccccc2S3)oc(N2CCOCC2)c1 [KU55933] (first compound 1.4 µM, partner dose 1 µM)	165	116	86.6	74.6	64	31.9
CCN(CC)CCCCNc1ncc2cc(-c3cc(OC)cc(OC)c3)c(NC(=O)NC(C)(C)C)nc2n1 + COc1ccc(COc2ccc(Cc3cnc(N)nc3N)cc2OC)cc1 [GW2580] (first compound 0.1 µM, partner dose 1 µM)	225	117	104	31.7	203	121
O=C(O)C(=O)Nc1sc2c(c1C(=O)O)CCNC2 + O=C1NC(=O)/C(=C/c2ccc(-c3ccc(F)cc3O)o2)S1 [AS252424] (first compound 1.66667 µM, partner dose 1 µM)	45.9	180	119	30.9	92.3	161
CCN(CC)CCCCNc1ncc2cc(-c3cc(OC)cc(OC)c3)c(NC(=O)NC(C)(C)C)nc2n1 + c1cc(-c2cnn3cc(-c4ccc(OCCN5CCCCC5)cc4)cnc23)ccn1 [Dorsomorphin] (first compound 0.1 µM, partner dose 0.4 µM)	50.8	83	234	208	82.8	64.5

From the supplement of paper PMC4604168 (melanoma cell lines)
